Results reported in the supplement of paper PMC12819154, “High-throughput peptide-centric local stability assay extends protein–ligand identification to membrane proteins, tissues and bacteria” (Nature Structural & Molecular Biology, 2025).
This is one part of the list. Small differences around the control level are noise.

Amino acid sequences for entries named in this document (tags omitted). A change or cut given only in a name is not applied to a line headed by its entry.
UniProt P27656: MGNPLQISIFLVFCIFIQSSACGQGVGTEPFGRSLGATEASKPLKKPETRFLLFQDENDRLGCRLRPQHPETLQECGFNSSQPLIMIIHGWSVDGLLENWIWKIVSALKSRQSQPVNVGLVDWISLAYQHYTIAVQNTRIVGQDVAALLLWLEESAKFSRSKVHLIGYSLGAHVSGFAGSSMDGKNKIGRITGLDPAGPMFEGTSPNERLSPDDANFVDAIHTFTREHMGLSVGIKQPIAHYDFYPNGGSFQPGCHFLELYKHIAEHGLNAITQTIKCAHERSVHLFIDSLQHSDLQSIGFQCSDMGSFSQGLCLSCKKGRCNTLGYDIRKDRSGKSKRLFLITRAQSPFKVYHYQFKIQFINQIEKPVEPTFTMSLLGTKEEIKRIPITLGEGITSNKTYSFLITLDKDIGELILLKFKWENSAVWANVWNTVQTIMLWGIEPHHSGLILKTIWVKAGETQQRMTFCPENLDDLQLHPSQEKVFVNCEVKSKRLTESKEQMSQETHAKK
UniProt P29452: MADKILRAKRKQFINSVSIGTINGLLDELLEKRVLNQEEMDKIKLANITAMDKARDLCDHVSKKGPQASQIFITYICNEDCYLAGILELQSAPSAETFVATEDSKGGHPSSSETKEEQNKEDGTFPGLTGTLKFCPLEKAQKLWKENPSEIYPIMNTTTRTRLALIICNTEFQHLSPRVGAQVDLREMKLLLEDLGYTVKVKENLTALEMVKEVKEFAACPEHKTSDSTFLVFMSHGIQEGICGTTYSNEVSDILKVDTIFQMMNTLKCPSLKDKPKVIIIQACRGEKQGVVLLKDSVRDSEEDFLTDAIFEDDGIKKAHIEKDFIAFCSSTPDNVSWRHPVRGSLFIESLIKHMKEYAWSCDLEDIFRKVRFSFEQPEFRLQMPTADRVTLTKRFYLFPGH
UniProt P17225: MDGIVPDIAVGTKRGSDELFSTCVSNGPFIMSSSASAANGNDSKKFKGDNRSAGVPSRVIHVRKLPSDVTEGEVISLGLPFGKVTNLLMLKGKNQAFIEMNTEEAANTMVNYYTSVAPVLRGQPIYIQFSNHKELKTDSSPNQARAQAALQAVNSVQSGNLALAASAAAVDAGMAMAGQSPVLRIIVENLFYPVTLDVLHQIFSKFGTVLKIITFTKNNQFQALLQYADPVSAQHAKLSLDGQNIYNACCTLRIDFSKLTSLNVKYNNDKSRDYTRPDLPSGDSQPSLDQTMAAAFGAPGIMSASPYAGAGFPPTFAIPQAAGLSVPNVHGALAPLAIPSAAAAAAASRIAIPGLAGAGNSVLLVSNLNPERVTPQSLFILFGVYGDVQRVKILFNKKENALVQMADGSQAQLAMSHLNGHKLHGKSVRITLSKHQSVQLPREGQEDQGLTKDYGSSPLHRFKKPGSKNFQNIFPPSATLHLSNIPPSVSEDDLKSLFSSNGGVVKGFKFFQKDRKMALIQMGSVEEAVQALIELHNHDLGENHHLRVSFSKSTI
UniProt P24457: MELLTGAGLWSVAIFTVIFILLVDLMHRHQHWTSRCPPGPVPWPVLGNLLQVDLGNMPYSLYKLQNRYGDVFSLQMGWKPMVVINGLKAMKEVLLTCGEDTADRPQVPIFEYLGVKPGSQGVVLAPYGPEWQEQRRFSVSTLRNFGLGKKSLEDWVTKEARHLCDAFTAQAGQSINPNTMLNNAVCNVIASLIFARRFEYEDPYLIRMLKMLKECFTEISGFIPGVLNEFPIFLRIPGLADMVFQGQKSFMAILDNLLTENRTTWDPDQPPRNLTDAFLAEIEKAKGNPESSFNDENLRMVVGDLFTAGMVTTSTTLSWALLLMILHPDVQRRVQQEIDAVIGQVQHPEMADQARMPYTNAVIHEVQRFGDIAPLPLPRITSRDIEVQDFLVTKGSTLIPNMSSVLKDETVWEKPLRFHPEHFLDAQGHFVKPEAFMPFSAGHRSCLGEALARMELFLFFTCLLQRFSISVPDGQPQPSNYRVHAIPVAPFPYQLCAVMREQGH
UniProt P18337: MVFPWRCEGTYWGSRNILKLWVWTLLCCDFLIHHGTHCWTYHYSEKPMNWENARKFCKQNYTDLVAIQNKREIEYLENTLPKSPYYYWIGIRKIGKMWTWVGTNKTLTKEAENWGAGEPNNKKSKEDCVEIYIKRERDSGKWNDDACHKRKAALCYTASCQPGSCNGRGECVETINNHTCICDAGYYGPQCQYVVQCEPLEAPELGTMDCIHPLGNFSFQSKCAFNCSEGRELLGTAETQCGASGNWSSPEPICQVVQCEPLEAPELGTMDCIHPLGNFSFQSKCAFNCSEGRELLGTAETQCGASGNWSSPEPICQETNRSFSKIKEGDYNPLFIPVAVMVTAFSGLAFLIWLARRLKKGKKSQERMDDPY
UniProt P23589: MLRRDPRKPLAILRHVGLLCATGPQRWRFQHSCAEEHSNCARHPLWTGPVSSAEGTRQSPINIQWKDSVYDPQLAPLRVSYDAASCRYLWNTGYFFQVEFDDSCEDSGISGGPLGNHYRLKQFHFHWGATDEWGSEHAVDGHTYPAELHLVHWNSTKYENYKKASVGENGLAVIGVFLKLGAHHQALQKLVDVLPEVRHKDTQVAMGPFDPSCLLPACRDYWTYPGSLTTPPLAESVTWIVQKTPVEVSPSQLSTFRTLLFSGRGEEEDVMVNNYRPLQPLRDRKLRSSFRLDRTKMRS
UniProt P30999: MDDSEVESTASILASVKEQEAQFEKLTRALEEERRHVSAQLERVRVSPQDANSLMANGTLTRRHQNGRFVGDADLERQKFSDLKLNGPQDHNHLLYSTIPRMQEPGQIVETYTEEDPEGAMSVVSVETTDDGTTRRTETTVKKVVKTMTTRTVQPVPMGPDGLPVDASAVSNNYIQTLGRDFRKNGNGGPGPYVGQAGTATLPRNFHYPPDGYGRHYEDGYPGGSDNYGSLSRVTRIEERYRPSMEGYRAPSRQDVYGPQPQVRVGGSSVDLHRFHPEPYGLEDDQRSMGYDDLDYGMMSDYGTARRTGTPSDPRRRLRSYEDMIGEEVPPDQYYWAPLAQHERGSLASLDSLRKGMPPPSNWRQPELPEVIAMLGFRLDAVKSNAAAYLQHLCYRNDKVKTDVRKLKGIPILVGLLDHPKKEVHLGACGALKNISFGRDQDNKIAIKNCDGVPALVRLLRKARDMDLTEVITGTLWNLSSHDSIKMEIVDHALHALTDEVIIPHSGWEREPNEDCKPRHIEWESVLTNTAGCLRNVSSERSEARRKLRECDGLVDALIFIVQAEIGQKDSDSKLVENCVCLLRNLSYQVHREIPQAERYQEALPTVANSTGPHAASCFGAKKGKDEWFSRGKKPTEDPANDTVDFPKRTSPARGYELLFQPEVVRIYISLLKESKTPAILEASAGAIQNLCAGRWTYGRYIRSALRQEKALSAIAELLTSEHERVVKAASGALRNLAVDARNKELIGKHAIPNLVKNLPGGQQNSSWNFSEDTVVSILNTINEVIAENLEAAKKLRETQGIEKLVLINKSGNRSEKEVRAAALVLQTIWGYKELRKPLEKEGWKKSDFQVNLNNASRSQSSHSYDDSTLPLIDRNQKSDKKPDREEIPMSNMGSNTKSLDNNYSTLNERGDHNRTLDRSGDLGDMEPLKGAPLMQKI
UniProt P27782, whole entry: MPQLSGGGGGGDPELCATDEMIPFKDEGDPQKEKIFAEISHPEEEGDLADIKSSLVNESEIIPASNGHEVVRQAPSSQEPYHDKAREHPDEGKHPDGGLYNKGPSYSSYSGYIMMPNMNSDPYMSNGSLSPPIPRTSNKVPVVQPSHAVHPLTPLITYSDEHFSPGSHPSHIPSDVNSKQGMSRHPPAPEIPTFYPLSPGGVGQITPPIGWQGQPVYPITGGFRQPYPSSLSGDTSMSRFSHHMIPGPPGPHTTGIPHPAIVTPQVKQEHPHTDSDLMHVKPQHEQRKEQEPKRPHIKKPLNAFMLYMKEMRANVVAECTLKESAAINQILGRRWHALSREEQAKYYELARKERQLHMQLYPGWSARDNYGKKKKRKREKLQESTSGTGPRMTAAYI

What follows are targets tested with CN[C@@H]1C[C@H]2O[C@@](C)([C@@H]1OC)n1c3ccccc3c3c4c(c5c6ccccc6n2c5c31)C(=O)NC4 [staurosporine] (assay: log2 fold change of tryptic peptide abundance, ligand vs vehicle (limited proteolysis) (log2 ratio); higher = more trypsin-susceptible (destabilized)). Settings: ligand concentration: 20 uM; sample: mouse liver crude lysate; replicate design: treated separately.

**Q.** “UniProt P27656 (peptide sequence: VFVNCEVK, peptide start residue: 484)” was tested. Which log2 fold change did it give?
**A.** -0.623

**Q.** For “UniProt P29452 (peptide sequence: LQMPTADRVTLTK, peptide start residue: 382)”, which log2 fold change is on record?
**A.** -0.226

**Q.** Which log2 fold change does the source give for “UniProt P17225 (peptide sequence: EGQEDQGLTKDYGSSPLHR, peptide start residue: 443)” here?
**A.** -0.146

**Q.** For “UniProt P24457 (peptide sequence: AKGNPESSFNDENLR, peptide start residue: 285)”, which log2 fold change is on record?
**A.** -0.538

**Q.** “UniProt P18337 (peptide sequence: EIEYLENTLPK, peptide start residue: 72)” was tested. Which log2 fold change did it give?
**A.** 0.214

**Q.** How did the log2 fold change turn out when “UniProt P23589 (peptide sequence: HVGLLCATGPQR, peptide start residue: 15)” was run?
**A.** 0.134

**Q.** How did the log2 fold change turn out when “UniProt P30999 (peptide sequence: SQSSHSYDDSTLPLIDRNQK, peptide start residue: 859)” was run?
**A.** -0.235

**Q.** Which log2 fold change does the source give for “UniProt P27782 (peptide sequence: KPLNAFMLYMK, peptide start residue: 329)” here?
**A.** 0.576
